# According to the supplement of paper PMC12889115:
# This is one part of the list. Values are raw readings; no control value is given beside them.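 Primary screen: polymyxin B was added at a level permeabilizing Salmonella outer membranes while sparing inner membranes. DMSO wells, both with and without polymyxin B, established maximum growth. Plate-to-plate variation meant each plate was ranked on its own, and the lowest-OD600 compounds were selected as hits.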
# System: Salmonella enterica serovar Typhimurium SL1344
# Test: bacterial growth OD600 after 18 h with compound and polymyxin B; higher = more bacterial growth (less inhibition)
# Conditions: 50 µM, Mueller-Hinton broth
Structure (SMILES),bacterial growth OD600 (polymyxin B 1 µg/mL),bacterial growth OD600 (polymyxin B 0.75 µg/mL)
CCOC(=O)C1(Cc2ccc(F)cc2)CCCN(C(=O)c2ccc(N(C)C)cc2)C1 (centres undefined),0.572,–
COC(=O)C(CCSC)NC(=O)c1ccc2oc(C(C)C)nc2c1 (centres undefined),1.15,–
CC(C)CCC(=O)N1CCCC1C(=O)Nc1ccccc1Oc1cccnc1 (centres undefined),0.912,–
COCc1noc(-c2ccc(N(C)Cc3ncccc3C)nc2)n1,0.997,–
CSCCNC(=O)C1CC(Cc2cccc(Cl)c2)=NO1 (centres undefined),–,0.796
CSc1nccc(N2C[C@H]3OC(=O)N(Cc4ccccn4)[C@H]3C2)n1,–,0.838
COC(=O)CCC(=O)N1CCCC(CCc2cccc(OC)c2)C1 (centres undefined),–,0.777
CCN1CCN(c2ccc(C(=O)NCCC3CCCCN3C)cn2)CC1 (centres undefined),0.884,–
O=C(C1CCOCC1)N1CCC(C2CCN(Cc3cccc(F)c3F)CC2)C1 (centres undefined),–,0.945
O=C(NC1CCCN(Cc2ccc(Cl)cc2)C1)c1cnc(CN2CCCC2)s1 (centres undefined),1.28,–
CC(=O)N1CCN(C(=O)CC2(c3ccccc3C)CC(=O)N(Cc3cccnc3)C2=O)CC1 (centres undefined),–,0.911
CCOC(=O)C1(Cc2cccc(Cl)c2)CCCN(C(=O)c2cc(C)on2)C1 (centres undefined),0.747,–
Fc1ccc(Cc2noc(-c3ccc(N4CCCO4)nc3)n2)cc1,1.1,–
COc1cc(CC2(CCC(=O)NCCc3cccc4ccccc34)CCC(=O)N2)ccc1F (centres undefined),–,0.705
Cc1cc(C)n2nc(C(=O)N3CCC4(CC3)CC4C(=O)NCc3cccs3)cc2n1 (centres undefined),–,0.992
COc1cc(CC2(CCC(=O)NC3CCCc4ccccc43)CCC(=O)N2)ccc1F (centres undefined),–,0.801
C=CCC(=O)NC1CC(=O)N(Cc2cccc3ccccc23)C1 (centres undefined),0.905,–

Structure (SMILES),bacterial growth OD600 (polymyxin B 1 µg/mL),bacterial growth OD600 (polymyxin B 0.75 µg/mL)
COc1c(C)cc(C(=O)C2CCCN(C(=O)Cn3c(=O)oc4ccccc43)C2)cc1C (centres undefined),0.01,–
COc1ccc(OC2CCN(C(=O)C3CC3)CC2)c(C(=O)NCc2cc(F)ccc2F)c1,1.04,–
O=C(CCC1CCCN(C(=O)c2ccco2)C1)NCc1ccccc1Cl (centres undefined),0.894,–
O=C(NC1CC1)c1coc(COc2cccc(C(F)(F)F)c2)n1,0.762,–
CCOC(=O)C1(Cc2ccccc2Cl)CCN(S(=O)(=O)c2ccccc2)CC1,0.67,–
COC(=O)CNC(=O)c1ccc(OC2CCN(S(C)(=O)=O)CC2)c(Cl)c1,1.11,–
COC(=O)CCC(=O)N1CCCC(CCC(=O)Nc2ccc(F)cc2C)C1 (centres undefined),1,–
COc1ccccc1-c1cn2c(C(=O)N3CCN(Cc4cccs4)CC3)csc2n1,0.897,–
CCOCCNC(=O)C1CCC(=O)N(CCc2ccc(OC)cc2)C1 (centres undefined),1.11,–
CN(CC1CCCN(CCc2ccccc2F)C1)C(=O)Cn1cccn1 (centres undefined),1.04,–
CCOC(=O)CN(C)C(=O)c1cc(COc2c(F)cccc2F)on1,–,0.804
COCCNC(=O)c1ccc(OC2CCN(Cc3cccc(O)c3)CC2)c(Cl)c1,1.08,–
Cn1cc(CN2CCC(Oc3cc(Cl)ccc3C(=O)N3CCCCC3)CC2)cn1,1.09,–
CSCCNC(=O)CCc1nnc(CCc2c[nH]c3ccccc23)o1,0.872,–
COc1ccc(-c2nc(CN(C)C(C)c3ccon3)c(C)o2)cc1C (centres undefined),0.714,–
OC(c1cccnc1)C1CCN(c2nc3nonc3nc2N2CCSCC2)CC1 (centres undefined),–,0.784
Cc1n[nH]c(C)c1CNC(=O)C1(N2CCCCC2)Cc2ccccc2C1,1.1,–
